By UniProt entry, the sequences of proteins in these tests, tags left out. Residues count along the entry.
UniProt P35222: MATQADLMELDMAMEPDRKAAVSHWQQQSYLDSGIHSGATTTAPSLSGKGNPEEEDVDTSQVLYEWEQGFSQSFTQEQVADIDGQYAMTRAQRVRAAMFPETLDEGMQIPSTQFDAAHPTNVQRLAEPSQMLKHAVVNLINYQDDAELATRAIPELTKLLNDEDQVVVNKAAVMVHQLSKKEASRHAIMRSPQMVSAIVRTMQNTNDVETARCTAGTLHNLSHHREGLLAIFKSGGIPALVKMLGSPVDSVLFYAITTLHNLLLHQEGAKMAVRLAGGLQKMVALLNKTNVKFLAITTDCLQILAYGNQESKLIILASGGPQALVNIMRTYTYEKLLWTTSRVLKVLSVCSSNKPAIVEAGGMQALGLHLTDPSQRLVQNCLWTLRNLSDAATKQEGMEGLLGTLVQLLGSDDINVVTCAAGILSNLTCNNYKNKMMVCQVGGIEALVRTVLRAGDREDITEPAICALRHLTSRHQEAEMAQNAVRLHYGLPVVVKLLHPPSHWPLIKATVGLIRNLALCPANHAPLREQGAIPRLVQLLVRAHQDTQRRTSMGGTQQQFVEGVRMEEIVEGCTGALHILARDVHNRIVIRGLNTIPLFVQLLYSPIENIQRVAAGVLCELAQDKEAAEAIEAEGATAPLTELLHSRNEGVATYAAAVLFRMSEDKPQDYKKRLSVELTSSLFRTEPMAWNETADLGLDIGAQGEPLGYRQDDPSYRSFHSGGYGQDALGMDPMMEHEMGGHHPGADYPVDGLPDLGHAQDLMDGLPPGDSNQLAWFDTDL
UniProt O75787, residues 17-350: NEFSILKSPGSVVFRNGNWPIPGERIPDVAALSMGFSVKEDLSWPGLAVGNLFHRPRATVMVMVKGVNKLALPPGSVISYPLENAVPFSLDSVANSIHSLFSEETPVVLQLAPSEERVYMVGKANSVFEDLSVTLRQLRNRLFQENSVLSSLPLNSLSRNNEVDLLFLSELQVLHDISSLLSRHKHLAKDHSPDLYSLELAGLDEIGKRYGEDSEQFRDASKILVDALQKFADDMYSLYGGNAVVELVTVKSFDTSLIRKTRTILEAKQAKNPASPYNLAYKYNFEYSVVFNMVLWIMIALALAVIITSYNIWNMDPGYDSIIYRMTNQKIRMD
UniProt Q9HCU4, residues 32-2923: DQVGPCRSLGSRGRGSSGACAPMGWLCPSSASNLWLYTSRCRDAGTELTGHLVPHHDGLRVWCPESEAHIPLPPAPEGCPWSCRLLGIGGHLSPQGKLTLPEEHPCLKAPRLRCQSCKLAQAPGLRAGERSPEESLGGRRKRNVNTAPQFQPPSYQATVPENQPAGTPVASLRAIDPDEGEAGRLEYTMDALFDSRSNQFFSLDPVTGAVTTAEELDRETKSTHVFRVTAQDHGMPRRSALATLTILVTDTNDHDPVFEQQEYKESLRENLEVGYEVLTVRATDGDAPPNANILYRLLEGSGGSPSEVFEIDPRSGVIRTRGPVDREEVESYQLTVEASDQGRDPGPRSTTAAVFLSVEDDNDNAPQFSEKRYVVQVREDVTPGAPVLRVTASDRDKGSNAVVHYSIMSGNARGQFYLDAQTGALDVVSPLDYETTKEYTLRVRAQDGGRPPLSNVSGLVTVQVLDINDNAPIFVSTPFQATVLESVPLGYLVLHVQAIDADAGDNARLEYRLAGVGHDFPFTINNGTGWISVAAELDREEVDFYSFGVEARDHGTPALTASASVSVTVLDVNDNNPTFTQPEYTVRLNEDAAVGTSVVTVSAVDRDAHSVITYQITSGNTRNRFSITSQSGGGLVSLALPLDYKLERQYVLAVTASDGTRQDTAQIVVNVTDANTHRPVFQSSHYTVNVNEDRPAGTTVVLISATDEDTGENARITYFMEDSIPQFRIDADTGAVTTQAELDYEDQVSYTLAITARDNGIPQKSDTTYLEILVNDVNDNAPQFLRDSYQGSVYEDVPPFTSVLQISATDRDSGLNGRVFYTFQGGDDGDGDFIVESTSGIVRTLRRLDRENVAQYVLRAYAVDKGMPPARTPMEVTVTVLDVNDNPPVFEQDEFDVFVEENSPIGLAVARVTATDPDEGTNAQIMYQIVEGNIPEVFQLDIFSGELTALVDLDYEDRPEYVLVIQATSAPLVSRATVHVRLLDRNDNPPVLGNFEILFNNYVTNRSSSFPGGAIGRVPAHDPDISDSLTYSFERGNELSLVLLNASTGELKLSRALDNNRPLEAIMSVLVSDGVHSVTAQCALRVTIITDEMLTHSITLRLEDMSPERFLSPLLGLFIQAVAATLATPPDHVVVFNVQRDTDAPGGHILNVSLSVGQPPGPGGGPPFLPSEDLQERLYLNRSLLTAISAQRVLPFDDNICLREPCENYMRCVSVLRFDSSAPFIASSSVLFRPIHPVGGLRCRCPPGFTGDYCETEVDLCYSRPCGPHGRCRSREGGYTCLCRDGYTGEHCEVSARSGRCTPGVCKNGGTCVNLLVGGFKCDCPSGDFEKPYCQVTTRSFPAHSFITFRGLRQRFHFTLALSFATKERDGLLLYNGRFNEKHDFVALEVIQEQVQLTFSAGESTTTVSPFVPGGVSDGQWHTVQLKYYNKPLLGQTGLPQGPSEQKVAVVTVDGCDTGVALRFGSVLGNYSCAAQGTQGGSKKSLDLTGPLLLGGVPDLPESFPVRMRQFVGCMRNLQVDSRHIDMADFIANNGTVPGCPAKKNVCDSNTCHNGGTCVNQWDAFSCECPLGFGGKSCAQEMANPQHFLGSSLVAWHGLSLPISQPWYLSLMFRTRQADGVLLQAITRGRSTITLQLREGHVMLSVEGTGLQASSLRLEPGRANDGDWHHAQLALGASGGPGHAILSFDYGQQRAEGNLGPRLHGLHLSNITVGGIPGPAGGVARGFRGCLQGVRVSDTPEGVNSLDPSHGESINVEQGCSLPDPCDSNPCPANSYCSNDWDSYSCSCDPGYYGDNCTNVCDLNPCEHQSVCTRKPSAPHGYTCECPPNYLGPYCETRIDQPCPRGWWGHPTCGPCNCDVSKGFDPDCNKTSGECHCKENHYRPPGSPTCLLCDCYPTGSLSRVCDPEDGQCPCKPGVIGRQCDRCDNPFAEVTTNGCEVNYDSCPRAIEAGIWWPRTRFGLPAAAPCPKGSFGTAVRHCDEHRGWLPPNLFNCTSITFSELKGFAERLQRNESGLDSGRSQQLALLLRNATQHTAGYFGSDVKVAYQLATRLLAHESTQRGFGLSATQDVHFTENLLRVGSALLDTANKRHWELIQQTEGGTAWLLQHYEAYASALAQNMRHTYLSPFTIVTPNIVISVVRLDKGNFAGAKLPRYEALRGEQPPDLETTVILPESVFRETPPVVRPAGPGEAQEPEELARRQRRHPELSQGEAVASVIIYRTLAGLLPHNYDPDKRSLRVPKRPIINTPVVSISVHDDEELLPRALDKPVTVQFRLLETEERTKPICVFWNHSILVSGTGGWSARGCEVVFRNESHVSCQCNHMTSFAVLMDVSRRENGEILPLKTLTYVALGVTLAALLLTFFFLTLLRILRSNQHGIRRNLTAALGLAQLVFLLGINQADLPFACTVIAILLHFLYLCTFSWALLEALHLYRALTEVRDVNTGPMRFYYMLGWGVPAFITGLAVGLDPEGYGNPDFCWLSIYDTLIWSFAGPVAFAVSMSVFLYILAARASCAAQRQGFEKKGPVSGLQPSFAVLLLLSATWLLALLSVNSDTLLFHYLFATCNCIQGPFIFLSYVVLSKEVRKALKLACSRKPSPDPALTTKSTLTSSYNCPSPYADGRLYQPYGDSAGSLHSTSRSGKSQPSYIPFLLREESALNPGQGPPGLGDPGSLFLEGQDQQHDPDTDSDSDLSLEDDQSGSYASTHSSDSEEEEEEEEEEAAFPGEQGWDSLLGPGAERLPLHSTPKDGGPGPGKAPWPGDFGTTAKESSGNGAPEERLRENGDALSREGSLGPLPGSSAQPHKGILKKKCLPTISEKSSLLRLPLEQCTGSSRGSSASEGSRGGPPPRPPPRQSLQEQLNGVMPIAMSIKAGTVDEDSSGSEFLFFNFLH
UniProt Q6UVK1, residues 30-2322: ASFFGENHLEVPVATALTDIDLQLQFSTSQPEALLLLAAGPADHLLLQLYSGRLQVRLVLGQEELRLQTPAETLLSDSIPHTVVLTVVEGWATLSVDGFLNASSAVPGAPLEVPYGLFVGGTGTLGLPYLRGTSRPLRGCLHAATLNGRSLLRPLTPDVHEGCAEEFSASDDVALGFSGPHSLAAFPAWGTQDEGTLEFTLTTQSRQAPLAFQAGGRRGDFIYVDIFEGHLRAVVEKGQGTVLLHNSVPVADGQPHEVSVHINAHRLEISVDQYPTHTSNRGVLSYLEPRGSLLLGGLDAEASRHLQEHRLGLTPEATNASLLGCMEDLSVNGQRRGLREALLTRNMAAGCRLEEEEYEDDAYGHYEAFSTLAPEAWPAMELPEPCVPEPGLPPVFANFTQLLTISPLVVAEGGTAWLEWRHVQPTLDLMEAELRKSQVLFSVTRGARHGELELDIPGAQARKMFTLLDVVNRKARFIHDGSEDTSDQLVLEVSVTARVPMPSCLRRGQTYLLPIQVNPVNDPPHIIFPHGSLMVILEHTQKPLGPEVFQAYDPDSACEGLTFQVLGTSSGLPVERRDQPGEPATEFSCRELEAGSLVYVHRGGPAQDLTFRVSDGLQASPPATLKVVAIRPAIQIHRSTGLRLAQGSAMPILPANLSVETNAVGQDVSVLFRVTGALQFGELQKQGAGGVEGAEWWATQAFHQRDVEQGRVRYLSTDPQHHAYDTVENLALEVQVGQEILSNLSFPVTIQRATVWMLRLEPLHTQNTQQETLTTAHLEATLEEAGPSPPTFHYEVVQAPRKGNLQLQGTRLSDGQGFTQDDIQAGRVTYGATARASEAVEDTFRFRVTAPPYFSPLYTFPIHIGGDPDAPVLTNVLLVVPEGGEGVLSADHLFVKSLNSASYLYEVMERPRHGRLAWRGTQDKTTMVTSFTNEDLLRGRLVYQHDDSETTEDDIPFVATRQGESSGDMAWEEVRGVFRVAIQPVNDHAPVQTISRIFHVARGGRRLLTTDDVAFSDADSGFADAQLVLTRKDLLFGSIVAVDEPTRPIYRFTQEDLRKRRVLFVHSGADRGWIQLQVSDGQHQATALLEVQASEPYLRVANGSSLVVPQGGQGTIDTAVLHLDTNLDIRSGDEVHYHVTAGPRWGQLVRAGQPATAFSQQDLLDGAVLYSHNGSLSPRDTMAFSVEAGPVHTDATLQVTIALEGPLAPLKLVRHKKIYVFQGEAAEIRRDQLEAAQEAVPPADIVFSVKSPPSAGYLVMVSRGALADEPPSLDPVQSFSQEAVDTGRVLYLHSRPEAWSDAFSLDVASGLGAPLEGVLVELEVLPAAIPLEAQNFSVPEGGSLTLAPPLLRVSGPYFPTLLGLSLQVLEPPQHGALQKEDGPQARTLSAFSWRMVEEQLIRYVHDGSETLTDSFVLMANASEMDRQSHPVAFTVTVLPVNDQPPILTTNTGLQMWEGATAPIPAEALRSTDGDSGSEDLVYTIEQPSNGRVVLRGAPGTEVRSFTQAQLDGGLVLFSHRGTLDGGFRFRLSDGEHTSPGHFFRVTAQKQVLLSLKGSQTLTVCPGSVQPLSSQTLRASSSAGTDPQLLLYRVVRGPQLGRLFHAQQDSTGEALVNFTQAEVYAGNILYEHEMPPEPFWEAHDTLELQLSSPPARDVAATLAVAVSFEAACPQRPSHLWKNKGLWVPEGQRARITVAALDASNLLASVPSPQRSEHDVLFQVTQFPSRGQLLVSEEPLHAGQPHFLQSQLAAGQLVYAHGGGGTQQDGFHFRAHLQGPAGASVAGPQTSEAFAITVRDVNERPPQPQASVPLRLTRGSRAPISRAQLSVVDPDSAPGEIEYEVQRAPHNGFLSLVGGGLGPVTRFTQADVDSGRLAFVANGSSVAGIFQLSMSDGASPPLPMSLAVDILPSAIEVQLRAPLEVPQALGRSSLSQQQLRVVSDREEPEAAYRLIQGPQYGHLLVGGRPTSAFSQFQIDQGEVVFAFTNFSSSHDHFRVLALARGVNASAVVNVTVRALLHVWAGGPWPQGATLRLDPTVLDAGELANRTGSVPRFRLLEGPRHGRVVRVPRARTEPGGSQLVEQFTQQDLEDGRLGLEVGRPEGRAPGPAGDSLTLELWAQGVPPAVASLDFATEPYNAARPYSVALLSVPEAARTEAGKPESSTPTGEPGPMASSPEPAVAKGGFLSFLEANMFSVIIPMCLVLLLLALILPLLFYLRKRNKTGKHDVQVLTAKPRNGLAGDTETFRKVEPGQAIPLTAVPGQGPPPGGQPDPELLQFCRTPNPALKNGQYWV

In article PMC7948961, “Proteomic identification and validation of novel interactions of the putative tumor suppressor PRELP with membrane proteins including IGFI-R and p75NTR” (The Journal of Biological Chemistry, 2021):

Target: T1, Human PRELP (proline and arginine-rich end leucine-rich repeat protein) with a C-terminal FLAG tag, overexpressed in Expi293 cells (human) (UniProt P51888)
T1 sequence: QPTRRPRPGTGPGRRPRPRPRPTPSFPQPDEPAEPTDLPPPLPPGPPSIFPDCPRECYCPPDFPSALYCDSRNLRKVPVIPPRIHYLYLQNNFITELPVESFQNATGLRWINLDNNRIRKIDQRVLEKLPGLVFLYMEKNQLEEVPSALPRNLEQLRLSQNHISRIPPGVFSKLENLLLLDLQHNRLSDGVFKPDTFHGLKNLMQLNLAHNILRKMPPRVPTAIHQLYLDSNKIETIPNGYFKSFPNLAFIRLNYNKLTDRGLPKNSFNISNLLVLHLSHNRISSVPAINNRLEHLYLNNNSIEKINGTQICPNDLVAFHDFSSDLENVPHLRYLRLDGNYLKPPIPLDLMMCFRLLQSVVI
Assay: affinity purification with mass spectrometry; CoIP-MS: DDM extract (0.1% DDM, PBS pH 7.4) of the membrane fraction of Expi293 cells expressing PRELP-FLAG, captured on DDDDK-tagged Protein Purification Gel overnight at 4 °C, eluted with FLAG peptide; S-Trap digestion, LC-MS/MS; compared with control-transfected cells

Molecule: Proprotein convertase subtilisin/kexin type 5 (from UniProt Q92824 115-1860) (enzyme)
- binding: binds

Molecule: Plasma membrane calcium-transporting ATPase 1 (from UniProt P20020 1-1220)
- binding: binds

Molecule: Insulin-like growth factor 1 receptor (from UniProt P08069 31-1367)
- binding: binds

Molecule: Catenin beta-1 (from UniProt P35222 1-781)
- binding: binds

Molecule: Renin receptor (from UniProt O75787 17-350)
- binding: binds

Molecule: Protocadherin Fat 1 (from UniProt Q14517 22-4588)
- binding: binds

Molecule: Signal transducer and activator of transcription 1-alpha/beta (from UniProt P42224 1-750)
- binding: binds

Molecule: FRAS1-related extracellular matrix protein 2 (from UniProt Q5SZK8 47-3169)
- binding: binds

Molecule: Extracellular matrix protein FRAS1 (from UniProt Q86XX4 27-4008)
- binding: binds

B1: Calsyntenin-1 (protein, UniProt O94985 29-981)
chain: ARVNKHKPWLEPTYHGIVTENDNTVLLDPPLIALDKDAPLRFAESFEVTVTKEGEICGFKIHGQNVPFDAVVVDKSTGEGVIRSKEKLDCELQKDYSFTIQAYDCGKGPDGTNVKKSHKATVHIQVNDVNEYAPVFKEKSYKATVIEGKQYDSILRVEAVDADCSPQFSQICSYEIITPDVPFTVDKDGYIKNTEKLNYGKEHQYKLTVTAYDCGKKRATEDVLVKISIKPTCTPGWQGWNNRIEYEPGTGALAVFPNIHLETCDEPVASVQATVELETSHIGKGCDRDTYSEKSLHRLCGAAAGTAELLPSPSGSLNWTMGLPTDNGHDSDQVFEFNGTQAVRIPDGVVSVSPKEPFTISVWMRHGPFGRKKETILCSSDKTDMNRHHYSLYVHGCRLIFLFRQDPSEEKKYRPAEFHWKLNQVCDEEWHHYVLNVEFPSVTLYVDGTSHEPFSVTEDYPLHPSKIETQLVVGACWQEFSGVENDNETEPVTVASAGGDLHMTQFFRGNLAGLTLRSGKLADKKVIDCLYTCKEGLDLQVLEDSGRGVQIQAHPSQLVLTLEGEDLGELDKAMQHISYLNSRQFPTPGIRRLKITSTIKCFNEATCISVPPVDGYVMVLQPEEPKISLSGVHHFARAASEFESSEGVFLFPELRIISTITREVEPEGDGAEDPTVQESLVSEEIVHDLDTCEVTVEGEELNHEQESLEVDMARLQQKGIEVSSSELGMTFTGVDTMASYEEVLHLLRYRNWHARSLLDRKFKLICSELNGRYISNEFKVEVNVIHTANPMEHANHMAAQPQFVHPEHRSFVDLSGHNLANPHPFAVVPSTATVVIVVCVSFLVFMIILGVFRIRAAHRRTMRDQDTGKENEMDWDDSALTITVNPMETYEDQHSSEEEEEEEEEEESEDGEEEDDITSAESESSEEEEGEQGDPQNATRQQQLEWDDSTLSY
- binding: binds

B2: Neutral amino acid transporter B(0) (protein, UniProt Q15758 1-541)
chain: MVADPPRDSKGLAAAEPTANGGLALASIEDQGAAAGGYCGSRDQVRRCLRANLLVLLTVVAVVAGVALGLGVSGAGGALALGPERLSAFVFPGELLLRLLRMIILPLVVCSLIGGAASLDPGALGRLGAWALLFFLVTTLLASALGVGLALALQPGAASAAINASVGAAGSAENAPSKEVLDSFLDLARNIFPSNLVSAAFRSYSTTYEERNITGTRVKVPVGQEVEGMNILGLVVFAIVFGVALRKLGPEGELLIRFFNSFNEATMVLVSWIMWYAPVGIMFLVAGKIVEMEDVGLLFARLGKYILCCLLGHAIHGLLVLPLIYFLFTRKNPYRFLWGIVTPLATAFGTSSSSATLPLMMKCVEENNGVAKHISRFILPIGATVNMDGAALFQCVAAVFIAQLSQQSLDFVKIITILVTATASSVGAAGIPAGGVLTLAIILEAVNLPVDHISLILAVDWLVDRSCTVLNVEGDALGAGLLQNYVDRTESRSTEPELIQVKSELPLDPLPVPTEEGNPLLKHYRGPAGDATVASEKESVM
- binding: binds

The remaining lines, values ahead:

- binding: binds
Molecule: Cadherin EGF LAG seven-pass G-type receptor 2 (from UniProt Q9HCU4 32-2923)

- binding: binds
Molecule: Prolow-density lipoprotein receptor-related protein 1 (from UniProt Q07954 20-4544)

- binding: binds
Molecule: Integral membrane protein 2B (from UniProt Q9Y287 1-266)

- binding: binds
Molecule: Chondroitin sulfate proteoglycan 4 (from UniProt Q6UVK1 30-2322)

- binding: binds
Molecule: Desmoglein-2 (from UniProt Q14126 50-1118)

- binding: binds
Molecule: CD97 antigen (from UniProt P48960 21-835) (receptor)

- binding: binds
Molecule: Low-affinity nerve growth factor receptor p75NTR (from UniProt P08138 29-427)

- binding: binds
B3: Calsyntenin-3 (protein, UniProt Q9BQT9 20-956)
chain: NKANKHKPWIEAEYQGIVMENDNTVLLNPPLFALDKDAPLRYAGEICGFRLHGSGVPFEAVILDKATGEGLIRAKEPVDCEAQKEHTFTIQAYDCGEGPDGANTKKSHKATVHVRVNDVNEFAPVFVERLYRAAVTEGKLYDRILRVEAIDGDCSPQYSQICYYEILTPNTPFLIDNDGNIENTEKLQYSGERLYKFTVTAYDCGKKRAADDAEVEIQVKPTCKPSWQGWNKRIEYAPGAGSLALFPGIRLETCDEPLWNIQATIELQTSHVAKGCDRDNYSERALRKLCGAATGEVDLLPMPGPNANWTAGLSVHYSQDSSLIYWFNGTQAVQVPLGGPSGLGSGPQDSLSDHFTLSFWMKHGVTPNKGKKEEETIVCNTVQNEDGFSHYSLTVHGCRIAFLYWPLLESARPVKFLWKLEQVCDDEWHHYALNLEFPTVTLYTDGISFDPALIHDNGLIHPPRREPALMIGACWTEEKNKEKEKGDNSTDTTQGDPLSIHHYFHGYLAGFSVRSGRLESREVIECLYACREGLDYRDFESLGKGMKVHVNPSQSLLTLEGDDVETFNHALQHVAYMNTLRFATPGVRPLRLTTAVKCFSEESCVSIPEVEGYVVVLQPDAPQILLSGTAHFARPAVDFEGTNGVPLFPDLQITCSISHQVEAKKDESWQGTVTDTRMSDEIVHNLDGCEISLVGDDLDPERESLLLDTTSLQQRGLELTNTSAYLTIAGVESITVYEEILRQARYRLRHGAALYTRKFRLSCSEMNGRYSSNEFIVEVNVLHSMNRVAHPSHVLSSQQFLHRGHQPPPEMAGHSLASSHRNSMIPSAATLIIVVCVGFLVLMVVLGLVRIHSLHRRVSGAGGPPGASSDPKDPDLFWDDSALTIIVNPMESYQNRQSCVTGAVGGQQEDEDSSDSEVADSPSSDERRIIETPPHRY

- binding: binds
B4: Metal transporter CNNM4 (protein, UniProt Q6P4Q7 1-775)
chain: MAPVGGGGRPVGGPARGRLLLAAPVLLVLLWALGARGQGSPQQGTIVGMRLASCNKSCGTNPDGIIFVSEGSTVNLRLYGYSLGNISSNLISFTEVDDAETLHKSTSCLELTKDLVVQQLVNVSRGNTSGVLVVLTKFLRRSESMKLYALCTRAQPDGPWLKWTDKDSLLFMVEEPGRFLPLWLHILLITVLLVLSGIFSGLNLGLMALDPMELRIVQNCGTEKERRYARKIEPIRRKGNYLLCSLLLGNVLVNTSLTILLDNLIGSGLMAVASSTIGIVIFGEILPQALCSRHGLAVGANTILLTKFFMLLTFPLSFPISKLLDFFLGQEIRTVYNREKLMEMLKVTEPYNDLVKEELNMIQGALELRTKTVEDIMTQLQDCFMIRSDAILDFNTMSEIMESGYTRIPVFEDEQSNIVDILYVKDLAFVDPDDCTPLKTITRFYNHPVHFVFHDTKLDAMLEEFKKGKSHLAIVQKVNNEGEGDPFYEVLGLVTLEDVIEEIIKSEILDESDMYTDNRSRKRVSEKNKRDFSAFKDADNELKVKISPQLLLAAHRFLATEVSQFSPSLISEKILLRLLKYPDVIQELKFDEHNKYYARHYLYTRNKPADYFILILQGKVEVEAGKENMKFETGAFSYYGTMALTSVPSDRSPAHPTPLSRSASLSYPDRTDVSTAATLAGSSNQFGSSVLGQYISDFSVRALVDLQYIKITRQQYQNGLLASRMENSPQFPIDGCTTHMENLAEKSELPVVDETTTLLNERNSLLHKASHENAI

These are yes or no findings as the source states them, for the method shown. In cells and extracts the contact can be indirect. A yes stands for co-enrichment or nearness to the bait. Other partners may have been found. Where a sequence is shown, tags or fusion partners need not be part of it. Each block holds one molecule with its values, some of them ahead of it.
